The name of at least one read-out is uncertain.
Target: T1, NphT7 (Streptomyces sp., UniProt D7URV0)
T1 construct: made in house; host or cells: E. coli BL21(de3)T1R
T1 sequence (D7URV0 1-329): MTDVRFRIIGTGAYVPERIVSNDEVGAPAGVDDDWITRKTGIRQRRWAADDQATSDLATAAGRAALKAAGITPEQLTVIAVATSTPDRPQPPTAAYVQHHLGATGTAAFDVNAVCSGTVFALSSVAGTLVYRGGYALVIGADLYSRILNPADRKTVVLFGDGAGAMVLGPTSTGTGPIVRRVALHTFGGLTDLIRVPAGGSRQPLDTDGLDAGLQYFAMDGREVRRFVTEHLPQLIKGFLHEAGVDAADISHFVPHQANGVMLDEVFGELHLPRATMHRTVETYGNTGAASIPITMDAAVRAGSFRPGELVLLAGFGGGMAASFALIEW
Assay: Acetoacetyl-CoA synthase NphT7 NADPH-coupled assay with PhaB
Type: biochemical
Settings: acetyl-CoA starter; compared to malonyl-CoA
Description: NphT7 activity was measured using a NADPH-coupled assay with PhaB. Assays were performed at 30° C. in a total volume of 500 μL containing 50 mM HEPES, pH 7.5, NADPH (160 μM), acetyl-CoA (200 μM), PhaB (0.05 mg/mL), NphT7 (0.2 μM for malonyl-CoA; 0.5 μM for fluoromalonyl-CoA) and malonyl-CoA (5-150 μM) or fluoromalonyl-CoA (5-200 μM). Reactions were initiated with the addition of malonyl- or fluoromalonyl-CoA and monitored at 340 nm in an Agilent 8453 diode array spectrophotometer. The PhaB-coupled assay was tested both by doubling NphT7, which doubled the initial velocity with both the fluorinated and non-fluorinated substrates, and also by doubling the amount of PhaB, which led to no difference in initial velocity.

## CC(C)(COP(=O)(O)OP(=O)(O)OC[C@H]1O[C@@H](n2cnc3c(N)ncnc32)[C@H](O)[C@@H]1OP(=O)(O)O)[C@@H](O)C(=O)NCCC(=O)NCCSC(=O)C(F)C(=O)O (stereo partly shown) [Fluoromalonyl-CoA]
  defect in catalytic efficiency (kcat/KM) with the fluorinated substrate: five-fold
